These are yes or no findings as the source states them, for the method shown. A result given as binding can be weak or reduced; the word gives no strength.

Sequences and labels used below:
B1: ABGDF15-G (antibody, human IgG1, kappa, V domains shown)
VH: QVQLVQSGAEVKKPGSSVKVSCKASGGTFSSHYINWVRQAPGQGLEWMGGIIPAFGGANYAQKFQGRVTITADESTSTAYMELSSLRSEDTAVYYCARFGSVYVSRYSSYYHMDVWGQGTLVTVSS
VL: DIQMTQSPSSLSASVGDRVTITCRASQTIYRSLAWYQQKPGKAPKLLIYGASILQSGVPSRFSGSGSGTDFTLTISSLQPEDFATYYCLQRYTSPFTFGQGTKVEIKR
notes: captured through anti-human Fc in the Biacore assay
B2: ABGDF15-A (antibody, human IgG1, kappa, V domains shown)
VH: EVQLVQSGAEVKKPGESLKISCKGSGYSFTDYWISWVRQMPGKGLEWMGIIDPSGSYTIYSPSFQGQVTISADKSISTAYLQWSSLKASDTAMYYCARVSYYGGYFDIWGQGTLVTVSS
VL: DIQMTQSPSSLSASVGDRVTITCRASQSISNNLNWYQQKPGKAPKLLIYAASNLQSGVPSRFSGSGSGTDFTLTISSLQPEDFATYYCFQLDHSPFTFGQGTKVEIKR
notes: as for B1
B3: ABGDF15-D (antibody, human IgG1, lambda, V domains shown)
VH: EVQLVQSGAEVKKPGESLKISCKGSGYSFTSYWIGWVRQMPGKGLEWMGVIDPDGSYTIYSPSFQGQVTISADKSISTAYLQWSSLKASDTAMYYCARYGRYGTYFDYWGQGTLVTVSS
VL: QSVLTQPPSVSGAPGQRVTISCSGSSSNIGVLYVNWYQQLPGTAPKLLIYSNDNRPSGVPDRFSGSKSGTSASLAITGLQAEDEADYYCQSWDSSSNYVFGGGTKLTVLG
notes: as for B1
B4: ABGDF15-E (antibody, human IgG1, lambda, V domains shown)
VH: EVQLVQSGAEVKKPGESLKISCKGSGYSFTSYWIGWVRQMPGKGLEWMGVIDPGGSYTIYSPSFQGQVTISADKSISTAYLQWSSLKASDTAMYYCARYGRYGTYFDYWGQGTLVTVSS
VL: QSVLTQPPSVSGAPGQRVTISCSGSSSNIGVLYVNWYQQLPGTAPKLLIYSNDNRPSGVPDRFSGSKSGTSASLAITGLQAEDEADYYCQSWDSSSNYVFGGGTKLTVLG
notes: as for B1
B5: ABGDF15-F (antibody, human IgG1, lambda, V domains shown)
VH: EVQLVQSGAEVKKPGESLKISCKGSGYSFTSYWIGWVRQMPGKGLEWMGVIDPSGSYTIYSPSFQGQVTISADKSISTAYLQWSSLKASDTAMYYCARYGRYGTYFDYWGQGTLVTVSS
VL: QSVLTQPPSVSGAPGQRVTISCSGSSSNIGVLYVNWYQQLPGTAPKLLIYSNDNRPSGVPDRFSGSKSGTSASLAITGLQAEDEADYYCQSWDSSSNYVFGGGTKLTVLG
notes: as for B1

In the test the target is rodent GDF15. In words: direct ELISA: GDF15 variant coated on the plate, serially diluted antibody, anti-human IgG-HRP detection. A general note: An ELISA detects its analyte on a solid surface through an enzyme-linked reagent.
Take B1: the binding entry is recorded as “binds”. The result for B2 reads “binds”. The entry for B3 is “binds”; for B4 it is “binds”; for B5 it is “binds”.

Values taken from patent publication US20190135908A1 (Novartis, published 2019).
